Reference: article PMC9060813, “Protein with negative surface charge distribution, Bnr1, shows characteristics of a DNA‐mimic protein and may be involved in the adaptation of Burkholderia cenocepacia” (MicrobiologyOpen, 2022)
No constants are given. Whether binding was seen depends on the method and setting. Binding seen in cells or lysates may run through a third protein. Here binding means that the protein was enriched with, or labelled near, the bait; the list need not be complete. Sequences can lack the tags named with a protein.

B1: HctB, histone H1-like protein (protein, UniProt B4E5V7 1-216)
chain: MATAKKKPAAKKVAAKKTVAKKAAAPAKKAAVKKVAAKKVAVKKVAAKKAAPAKKAAAKKVAAKKVATKKVAAKKVAAKKAAPAKKAAAKKVAAKKVAVKKVAAKKAAPAKKAAAKKAAPAKKAAAKKAAPAKKAAAKKAAPAKKAAAKKAAPAKKAAPAKKAAAPAKKAAAPKKAVVKKAAPATTASTASVAPASGVKTALNPAAAWPFPTGSRP
B2: BCAM1012, putative histone-like protein (protein, UniProt B4EFM0 1-149)
chain: MATSAKKVAKKAAAPATKKVAAKKAAPAKKVVAKKAVAKAAPAAPTPLKDKFTKASLATHIAERAAVEVKAVKAVLAALENVVLGSVHKKGAGEFTLPGLLKITAQVVPAKKKRFGKDPFTGEERWFPAKPASVRVKARALKKLKDAAA

Each molecule was assayed against T1, FLAG-tagged BCAS0292 (Bnr1) (Burkholderia cenocepacia) (UniProt B4EQ58) (assay: affinity purification with mass spectrometry; FLAG-BCAS0292 from E. coli lysate immobilised on anti-FLAG resin and washed (bait); B. cenocepacia K56-2 lysate (DNAse treated) as prey, 4°C overnight, TBS washes; bands cut from SDS-PAGE and identified by LC-MS; three independent pull-downs; only the target purified).
T1 sequence: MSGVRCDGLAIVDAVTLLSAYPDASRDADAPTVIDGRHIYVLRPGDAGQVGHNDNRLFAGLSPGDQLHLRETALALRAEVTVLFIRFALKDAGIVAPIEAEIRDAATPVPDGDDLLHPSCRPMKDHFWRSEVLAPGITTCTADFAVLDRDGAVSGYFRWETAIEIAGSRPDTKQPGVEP

binding, binds:
protein translocase subunit SecA
B1
B2
